# Data: the supplement of paper PMC8616043
# Structures can show the parent of a compound that is named as a salt. Some of the results follow. Repeats in this data set agree poorly, so a single value says little.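 Human U-2 OS cells stably expressing a GFP sensor with a nuclear import signal and classical export signal were transfected to produce PR50, a 50-repeat proline–arginine dipeptide from ALS/FTD gene C9ORF72. Nuclear-minus-cytoplasm GFP was scaled from DMSO (low) to PR-only (high), scored against plate test wells; strongly negative scores marked PR-reversing hits.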
# Test system: U-2 OS NCT-C biosensor cells expressing PR50
# Assay: Z-score of normalised NCT-C biosensor translocation index in PR50-expressing cells; higher = more nuclear biosensor (more disrupted nuclear export)
# Conditions: 3 µM; 24 h
row,Structure (SMILES),Z-score
1,OCc1cnc[nH]1 [4-Imidazole methanol HCl],inactive: 0.166
2,COC1=CC(=O)O[C@@H](/C=C/c2ccccc2)C1 (racemic) [(±)-Kavain],inactive: -0.877
3,Oc1ccc2c3c1O[C@H]1[C@@H](O)CC[C@@]4(O)[C@@H](C2)N(CC2CCC2)CC[C@]314 [Nalbuphine·HCl],inactive: 1.56
4,O=C(O)CC[N+](=O)[O-] [3-Nitropropionic acid],inactive: -0.859
5,COC(=O)C[C@](O)(CCC(C)(C)O)C(=O)O[C@@H]1C(OC)=C[C@]23CCCN2CCc2cc4c(cc2[C@H]13)OCO4 [Harringtonine],inactive: -1.03
6,CN[C@@H]1Cc2cccc3[nH]c(=O)n(c23)C1 [Sumanirole maleate],inactive: -0.179
7,NC(=O)c1cc(N2CC2)c([N+](=O)[O-])cc1[N+](=O)[O-],inactive: 2.71
8,C[C@@H]1O[C@H](C[N+](C)(C)C)C[C@H]1O [(+)-Muscarine chloride],inactive: 0.0284
9,C[C@@H]1O[C@H](C[N+](C)(C)C)C[C@H]1O (racemic) [(+-)-Muscarine chloride],inactive: -0.597
10,CP(=O)(O)C1=CCNCC1,inactive: -0.453
11,C=CCN1CC[C@]23c4c5ccc(O)c4O[C@H]2C(=O)CC[C@@]3(O)[C@H]1C5 [Naloxone hydrochloride],inactive: -1.56
12,C=CCN1CC[C@]23c4c5ccc(O)c4O[C@H]2C(=O)CC[C@@]3(O)[C@H]1C5 [Naloxone·HCl],inactive: 0.397
13,"COc1ccc2[nH]c3c(c2c1)CCNC3 [6-Methoxy-1,2,3,4- tetrahydro-9H- pyrido[3,4b] indole]",inactive: 0.524
14,CC[C@@H](C(=O)[C@@H](C)[C@@H](O)[C@H](C)[C@@H]1O[C@@H]([C@@H](CC)C(=O)O)CC[C@@H]1C)[C@H]1O[C@]2(C=C[C@@H](O)[C@]3(CC[C@@](C)([C@H]4CC[C@](O)(CC)[C@H](C)O4)O3)O2)[C@H](C)C[C@@H]1C [Salinomycin],inactive: 1.7
15,Cc1cccc(C)c1NC(=O)CN1CCCC1=O [Nefiracetam],inactive: -0.0248
16,NC(=O)CI [Iodoacetamide],inactive: -0.205
17,CCCC[N+]1(C)[C@@H]2C[C@@H](OC(=O)[C@H](CO)c3ccccc3)C[C@H]1[C@@H]1O[C@@H]12 (stereo partly drawn) [Scopolamine N-butylbromide],inactive: 0.615
18,C[C@H]1CC[C@]2(NC1)O[C@H]1C[C@H]3[C@@H]4CC[C@H]5C[C@@H](O)CC[C@]5(C)[C@H]4CC[C@]3(C)[C@H]1[C@@H]2C [Tomatidine],inactive: 0.0832

# Numbers 8 to 9, quoted:
row,Structure (SMILES),Z-score
8,C[C@@H]1O[C@H](C[N+](C)(C)C)C[C@H]1O [(+)-Muscarine chloride],inactive: 0.0284
9,C[C@@H]1O[C@H](C[N+](C)(C)C)C[C@H]1O (racemic) [(+-)-Muscarine chloride],inactive: -0.597
